No constants are given. Whether binding was seen depends on the method and setting. Binding can be weak; no strength is given.
Tests used:
[1] = molecular target: collagen cross-linked to agarose (Sigma); assay: pulldown with collagen-agarose, SDS-PAGE and anti-mouse IL-2 immunoblot
[2] = molecular target: collagen cross-linked to agarose (Sigma); assay: collagen-agarose pulldown with control agarose, anti-mouse IL-2 immunoblot

B1: Construct II (collagen I): mIL2-…(SEQ ID NO: 665)-MMPcs1-2x(G4S)-mIL2Ra(1-215)-muIgG1Fc (Fc fusion)
chain: APTSSSTSSSTAEAQQQQQQQQQQQQHLEQLLMDLQELLSRMENYRNLKLPRMLTFKFYLPKQATELKDLQCLEDELGPLRHVLDLTQSKSFQLEDAENFISNIRVTVVKLKGSDNTFECQFDDESATVVDFLRRWIAFCQSIISTSPQSLHERHLNNNGPLGVRGGGGGSGGGGSELCLYDPPEVPNATFKALSYKNGTILNCECKRGFRRLKELVYMRCLGNSWSSNCQCTSNSHDKSRKQVTAQLEHQKEQQTTTDMQKPTQSMHQENLTGHCREPPPWKHEDSKRIYHFVEGQSVHYECIPGYKALQRGPAISICKMKCGKTGWTQPQLTCVDEREHHRFLASEESQGSRNSSPESETSCPITTTDFPQPTETTAMTETFVLTMEYKGCKPCICTVPEVSSVFIFPPKPKDVLTITLTPKVTCVVVDISKDDPEVQFSWFVDDVEVHTAQTQPREEQFNSTFRSVSELPIMHQDWLNGKEFKCRVNSAAFPAPIEKTISKTKGRPKAPQVYTIPPPKEQMAKDKVSLTCMITDFFPEDITVEWQWNGQPAENYKNTQPIMDTDGSYFVYSKLNVQKSNWEAGNTFTCSVLHEGLHNHHTEKSLSHSPGK
binding [1]: binds | binding [2]: binds
